Test results reported in publication PMC9857354.

Molecular target: eGFP-tagged PDE6D (human)
Experiment: co-IP; visible immunoprecipitation (VIP) assay: lysates of HEK293T cells co-transfected with eGFP-PDE6D and mRFP-tagged cargo, anti-GFP or anti-mCherry nanobody beads, 1.5 h at 4 °C, beads imaged; confirmed by western blot

Row | binding | Binder
1 | binds | mRFP-tagged FAM219A WT (protein, UniProt Q8IW50-1 1-185, prenylated (the paper calls the WT form prenylated)) MMEEIDRFQVPTAHSEMQPLDPAAASISDGDCDAREGESVAMNYKPSPLQVKLEKQRELARKGSLKNGSMGSPVNQQPKKNNVMARTRLVVPNKGYSSLDQSPDEKPLVALDTDSDDDFDMSRYSSSGYSSAEQINQDLNIQLLKDGYRLDEIPDDEDLDLIPPKSVNPTCMCCQATSSTACHIQ
2 | no binding | mRFP-tagged FAM219A C > A (C182A) (protein, UniProt Q8IW50-1 1-185) MMEEIDRFQVPTAHSEMQPLDPAAASISDGDCDAREGESVAMNYKPSPLQVKLEKQRELARKGSLKNGSMGSPVNQQPKKNNVMARTRLVVPNKGYSSLDQSPDEKPLVALDTDSDDDFDMSRYSSSGYSSAEQINQDLNIQLLKDGYRLDEIPDDEDLDLIPPKSVNPTCMCCQATSSTAAHIQ

No constants are given. Whether binding was seen depends on the method and setting. Binding seen in cells or lysates may run through a third protein. Binding can be weak; no strength is given. Sequences can lack the tags named with a protein.
